According to US20150284768:

What was measured:
[1] = test system: T1, Hermes transposase wild type (Musca domestica); assay: activity assay; conditions: 5'-biotin on SEQ 11 strand; 5'-phosphate on SEQ 12 strand; variant used not explicit, wild type insertion dataset described in p29; 10 mM MgCl2, 100 mM NaCl, MOPS pH 7.5, 30 C; purified recombinant protein; label: biotin
T1 sequence: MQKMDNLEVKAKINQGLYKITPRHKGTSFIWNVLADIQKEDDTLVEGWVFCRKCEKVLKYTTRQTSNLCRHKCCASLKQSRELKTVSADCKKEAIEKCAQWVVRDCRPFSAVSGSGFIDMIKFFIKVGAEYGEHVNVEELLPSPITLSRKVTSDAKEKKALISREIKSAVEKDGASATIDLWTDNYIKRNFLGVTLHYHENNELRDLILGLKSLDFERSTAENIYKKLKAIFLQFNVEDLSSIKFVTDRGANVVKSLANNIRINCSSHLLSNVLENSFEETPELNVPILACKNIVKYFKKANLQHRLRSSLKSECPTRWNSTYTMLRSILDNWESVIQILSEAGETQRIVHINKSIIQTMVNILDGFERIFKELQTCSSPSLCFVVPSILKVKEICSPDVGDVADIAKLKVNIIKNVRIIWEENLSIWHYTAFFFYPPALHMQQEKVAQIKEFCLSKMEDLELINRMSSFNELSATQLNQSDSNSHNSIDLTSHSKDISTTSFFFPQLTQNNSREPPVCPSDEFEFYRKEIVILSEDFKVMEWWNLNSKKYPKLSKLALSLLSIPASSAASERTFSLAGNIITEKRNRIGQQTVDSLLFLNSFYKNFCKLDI

[2] = test system: T1, Hermes transposase wild type (Musca domestica); assay: enzyme reaction in vitro; conditions: 5'-phosphate on SEQ 9 strand; Mg2+ or Mn2+; 23 or 30 C; agarose gel of SEJ and DEJ products; purified recombinant protein
[3] = test system: T2, Hermes transposase triple mutant (Musca domestica); assay: enzyme reaction in vitro; conditions: 5'-phosphate on SEQ 9 strand; dimeric mutant; efficient strand transfer and fragmentation; Mg2+ or Mn2+; 23 or 30 C; purified recombinant protein
T2 sequence: T1 sequence with Q2E, L233S, V286M, R369A, F503A, F504A

[4] = test system: T3, Hermes transposase delta497-516 (Musca domestica); assay: enzyme reaction in vitro; conditions: 5'-phosphate on SEQ 9 strand; dimeric mutant; more active than native enzyme at 23 and 30 C; Mg2+ or Mn2+; purified recombinant protein
T3 sequence: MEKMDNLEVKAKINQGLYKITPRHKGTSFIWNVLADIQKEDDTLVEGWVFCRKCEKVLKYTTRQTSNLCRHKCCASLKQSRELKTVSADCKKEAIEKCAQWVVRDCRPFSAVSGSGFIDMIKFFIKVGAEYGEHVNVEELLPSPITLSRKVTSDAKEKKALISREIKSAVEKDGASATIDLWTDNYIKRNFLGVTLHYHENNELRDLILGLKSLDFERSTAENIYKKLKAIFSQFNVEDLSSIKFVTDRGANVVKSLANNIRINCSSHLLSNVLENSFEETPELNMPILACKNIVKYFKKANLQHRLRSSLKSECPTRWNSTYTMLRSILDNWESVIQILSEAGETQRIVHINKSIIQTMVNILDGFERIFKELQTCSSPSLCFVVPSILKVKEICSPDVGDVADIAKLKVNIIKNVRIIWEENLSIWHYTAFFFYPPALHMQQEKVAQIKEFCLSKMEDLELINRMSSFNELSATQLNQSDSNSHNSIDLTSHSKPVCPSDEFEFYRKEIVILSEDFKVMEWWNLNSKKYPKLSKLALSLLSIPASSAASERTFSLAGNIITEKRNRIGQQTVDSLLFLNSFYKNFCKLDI

| Sequence | activity on this sequence [1] | activity on this sequence [2] | activity on this sequence [3] | activity on this sequence [4] |
| --- | --- | --- | --- | --- |
| ATAAGTAGCAAGTGGCGCATAAGTATCAAAATAAGCCACTTGTTGTTGTTCTCTG / CCAGAGAACAACAACAAGTGGCTTATTTTGATACTTATGCGCCACTTGCTACTTAT [Biotinylated Hermes LE] | active |  |  |  |
| TCAGAGAACAACAACAAGTGGCTTATTTTGA / TCAAAATAAGCCACTTGTTGTTGTTCTCTG [Pre-cleaved Hermes left end (L-end)] |  | active | active | active |

Changes are numbered by the printed parent chain. Protein sequences can lack the tags named with them.
